# Test results published in PubChem BioAssay AID328 (DTP/NCI, 2004).
# The list shows only some results of the screen, not a fair sample: it gathers tests that were run many times, whatever their T/C, doses with no T/C, and many T/C values between a quarter and a half above the control. Further doses and runs are listed elsewhere. T/C gives the treated animals as a percentage of the vehicle group. Some doses have a count of surviving animals in place of a T/C: the source holds a T/C of zero for them, seemingly a mark for toxic or unscored doses. Some survivor counts are full or nearly so, which does not show that the dose was tolerated: survival well below the control is almost never listed, so the zero probably covers shortened survival too. Counts of survivors are from the toxicity check (mostly the fifth day) where no day follows; animals may have died later. Schedules are NCI's codes, read here as Q, the interval in days (D) or hours (H), X, the number of doses. Some entries were tested several times; their values stand side by side, smallest first. For survival time, this PubChem deposit counts one and a half times the control or more as active, and values a quarter to a half above the control carry no call in these data; other NCI protocols may use other cut-offs. Signs of the kind (2×) give the number of equal values in this list. Some T/C values are followed by the survivors on the day toxicity was checked, most often the fifth; where none is given, no animal had died by that day.
# Test system: BDF1 mice, P388 leukemia ip, median survival T/C
# Assay: NCI In Vivo Anticancer Drug Screen. Data for tumor model P388 Leukemia (intraperitoneal) in B6D2F1 (BDF1) mice
# Conditions: T/C endpoint: median survival time, higher T/C = longer survival
# In short: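 Transplantable tumour in mice; compound vs vehicle dosing; survival scored; ratio of treated to control reported.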
# [1] = dose: 3.13 mg/kg/injection, schedule: Q01DX009 (ip), vehicle: water
# [2] = dose: 4.0 mg/kg/injection, schedule: Q01DX004 (ip), vehicle: saline
structure (smiles),measurement,setting,value
COc1cccc2c1C(=O)c1c(O)c3c(c(O)c1C2=O)C[C@@](O)(C(=O)CO)C[C@@H]3OC1CC(N)C(O)C(C)O1 (some centres not stated),T/C,"dose: 2.0 mg/kg/injection, schedule: Q01DX009 (ip), vehicle: water, evaluated on day 41",188 % of control
same,T/C,"dose: 2.0 mg/kg/injection, schedule: Q01DX009 (sc), vehicle: saline",130 % of control
same,survivor count,"dose: 2.0 mg/kg/injection, schedule: Q03HX016 (ip), vehicle: saline",10 of 10
same,survivor count,"dose: 2.0 mg/kg/injection, schedule: Q03HX024 (sc), vehicle: saline",9 of 10
same,T/C,"dose: 2.0 mg/kg/injection, schedule: Q04DX003 (ip), vehicle: water, evaluated on day 30","116 (2×), 118, 123, 128, 133, 137, 193 % of control"
same,T/C,"dose: 2.0 mg/kg/injection, schedule: Q04DX003 (ip), vehicle: water, evaluated on day 32",144 % of control
same,T/C,"dose: 2.0 mg/kg/injection, schedule: Q04DX003 (ip), vehicle: water, evaluated on day 34",195 % of control
same,T/C,"dose: 2.0 mg/kg/injection, schedule: Q04DX003 (ip), vehicle: water, evaluated on day 38",192 % of control
same,T/C,"dose: 2.0 mg/kg/injection, schedule: Q04DX003 (ip), vehicle: water, evaluated on day 41",233 % of control
same,T/C,"dose: 2.0 mg/kg/injection, schedule: Q04DX003 (ip), vehicle: water, evaluated on day 46",212 % of control
same,T/C,"dose: 2.0 mg/kg/injection, schedule: Q04DX009 (ip), vehicle: water",126 % of control
same,T/C,"dose: 2.1 mg/kg/injection, schedule: Q01DX004 (ip), vehicle: saline","180, 191, 347, 396 % of control"
same,T/C,"dose: 2.2 mg/kg/injection, schedule: Q04DX003 (iv), vehicle: saline",130 % of control
same,T/C,"dose: 2.4 mg/kg/injection, schedule: Q04DX003 (ip), vehicle: water","168, 190, 194, 201, 214, 224, 252 % of control"
same,survivor count,"dose: 2.5 mg/kg/injection, schedule: Q03HX016 (ip), vehicle: saline",10 of 10
same,survivor count,"dose: 2.5 mg/kg/injection, schedule: Q03HX024 (sc), vehicle: saline",9 of 10
same,T/C,"dose: 2.6 mg/kg/injection, schedule: Q01DX004 (ip), vehicle: saline","205, 234, 505, 536 % of control"
same,T/C,"dose: 2.88 mg/kg/injection, schedule: Q04DX003 (ip), vehicle: saline, evaluated on day 9",167 % of control
same,T/C,"dose: 2.88 mg/kg/injection, schedule: Q04DX003 (ip), vehicle: saline, evaluated on day 60","212, 223, 231, 241, 243, 247, 260, 268, 308 % of control"
same,survivor count,"dose: 3.0 mg/kg/injection, schedule: Q01DX009 (ip), vehicle: saline",8 of 8
same,survivor count,"dose: 3.0 mg/kg/injection, schedule: Q03HX016 (ip), vehicle: saline",10 of 10
same,survivor count,"dose: 3.0 mg/kg/injection, schedule: Q03HX024 (sc), vehicle: saline",7 of 10
same,T/C,"dose: 3.0 mg/kg/injection, schedule: Q04DX003 (ip), vehicle: saline",130 % of control
same,T/C,"dose: 3.0 mg/kg/injection, schedule: Q04DX003 (ip), vehicle: water, evaluated on day 7",160 and 166 % of control
same,T/C,"dose: 3.0 mg/kg/injection, schedule: Q04DX003 (ip), vehicle: water, evaluated on day 60",247 % of control
same,T/C,"dose: 3.0 mg/kg/injection, schedule: Q04DX003 (ip), vehicle: water, evaluated on day 62",160 and 166 % of control
same,T/C,[1],140 % of control
same,survivor count,[1],3 of 3
same,T/C,"dose: 3.2 mg/kg/injection, schedule: Q01DX004 (ip), vehicle: saline","117, 218, 243, 507 % of control"
same,T/C,"dose: 3.3 mg/kg/injection, schedule: Q01DX001 (ip), vehicle: saline",147 % of control
same,T/C,"dose: 3.3 mg/kg/injection, schedule: Q04DX003 (ip), vehicle: saline, evaluated on day 5","96, 100, 104 (2×), 130, 136, 137, 157, 161, 162, 173, 175, 176, 200, 239, 250, 295, 303, 553 % of control"
same,T/C,"dose: 3.3 mg/kg/injection, schedule: Q04DX003 (ip), vehicle: saline, evaluated on day 8",158 % of control
same,T/C,"dose: 3.3 mg/kg/injection, schedule: Q04DX003 (ip), vehicle: saline, evaluated on day 45",179 % of control
same,T/C,"dose: 3.3 mg/kg/injection, schedule: Q04DX003 (ip), vehicle: saline, evaluated on day 60","96, 100, 104 (2×), 130, 136, 137, 157, 161, 162, 175, 176, 200, 230, 239, 250, 295, 303, 553 % of control"
same,T/C,"dose: 3.3 mg/kg/injection, schedule: Q04DX003 (iv), vehicle: saline",125 % of control
same,T/C,"dose: 4.0 mg/kg/injection, schedule: Q01DX001 (ip), vehicle: saline, evaluated on day 1",200 % of control
same,T/C,"dose: 4.0 mg/kg/injection, schedule: Q01DX001 (ip), vehicle: saline, evaluated on day 5","194, 198, 226, 243 % of control"
same,T/C,"dose: 4.0 mg/kg/injection, schedule: Q01DX001 (ip), vehicle: saline, evaluated on day 6",200 % of control
same,T/C,"dose: 4.0 mg/kg/injection, schedule: Q01DX001 (ip), vehicle: saline, evaluated on day 8",169 % of control
same,T/C,"dose: 4.0 mg/kg/injection, schedule: Q01DX001 (ip), vehicle: saline, evaluated on day 11",97 % of control
same,T/C,"dose: 4.0 mg/kg/injection, schedule: Q01DX001 (ip), vehicle: saline, evaluated on day 90",198 % of control
same,T/C,[2],135 % of control
same,survivor count,[2],10 of 10
same,T/C,"dose: 4.0 mg/kg/injection, schedule: Q01DX009 (ip), vehicle: water, evaluated on day 28",120 % of control
same,T/C,"dose: 4.0 mg/kg/injection, schedule: Q01DX009 (ip), vehicle: water, evaluated on day 32",115 and 245 % of control
same,T/C,"dose: 4.0 mg/kg/injection, schedule: Q01DX009 (ip), vehicle: water, evaluated on day 33",90 % of control [5 of 6 alive]
same,survivor count,"dose: 4.0 mg/kg/injection, schedule: Q01DX009 (ip), vehicle: water",6 of 6 and 8 of 8
same,survivor count,"dose: 4.0 mg/kg/injection, schedule: Q03HX008 (ip), vehicle: saline",7 of 10
same,survivor count,"dose: 4.0 mg/kg/injection, schedule: Q03HX008 (ip), vehicle: water",7 of 8
same,survivor count,"dose: 4.0 mg/kg/injection, schedule: Q03HX008 (sc), vehicle: saline",8 of 10
same,T/C,"dose: 4.0 mg/kg/injection, schedule: Q04DX003 (ip), vehicle: saline, evaluated on day 5",141 % of control
same,T/C,"dose: 4.0 mg/kg/injection, schedule: Q04DX003 (ip), vehicle: saline, evaluated on day 9",146 and 162 % of control
